Assay results as given in PubChem BioAssay AID1487 (National Center for Advancing Translational Sciences (NCATS), 2009).
Where “and” joins values, the source holds several entries; their conditions need not be identical. Identical values can stand only once. The list shows a part of the results. These are further read-outs of the screen, such as a control signal, another cell line or another target. No call is given for them. Compounds called inactive in the main read-out are mostly missing here. Words in brackets tell the shape of the fitted curve; partial curves, single points and poor fits give uncertain potencies.

Test: qHTS Assay for Modulators of Lamin A Splicing
Settings: HeLa LMNA splicing GFP/RFP minigene ratio, 48 h
Method in brief: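 Read-out is the ratio of GFP to DsRed2 object intensity, acquired by 488 nm laser-scanning cytometry on HeLa lamin A-EGFP minigene reporter cells. Compound incubation 48 hrs at 37 °C in Opti-MEM with 2% FBS; DMSO 0.5% final.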

[1] = measured here: GFP splicing reporter channel
[2] = measured here: RFP viability control channel

## CCn1c(SCC(=O)Nc2ccc(N(C)C)cc2)nnc1-c1cccc(C)c1
[1]
  AC50: 17.8 µM [rising, single point]
[2]
  AC50: 17.8 µM [rising, single point]

## Cc1ccc(C2C3=C(CCCC3=O)N=C3c4ccccc4C(=O)C32)cc1 (stereo unspecified)
[1]
  AC50: 3.55 µM [rising, partial curve]
[2]
  AC50: 8.91 µM [rising, partial curve]

## c1ccc(-c2c3ccccc3nc3[nH]c4ccccc4c23)cc1
[2]
  AC50: 10 µM [rising, partial curve]

## COc1ccccc1CNc1cc(-c2c(C)noc2C)ncn1
[1]
  AC50: 20 µM [falling, partial curve]

## CCOc1cccc(NC(=O)C2CCCN(S(=O)(=O)c3ccc(OC)cc3)C2)c1 (stereo unspecified)
[1]
  AC50: 11.2 µM [rising, partial curve, poor fit]
[2]
  AC50: 25.1 µM [rising, single point]

## C=C(NC(=O)C(=C)NC(=O)c1csc(C2=N[C@@H]3c4csc(n4)[C@@H]4NC(=O)c5csc(n5)[C@@H]([C@](C)(O)[C@H](C)O)NC(=O)[C@@H]5CSC(=N5)/C(=C/C)NC(=O)[C@@H]([C@H](C)O)NC(=O)c5csc(n5)[C@]3(CC2)NC(=O)[C@@H](C)NC(=O)C(=C)NC(=O)[C@@H](C)NC(=O)[C@@H]([C@@H](C)CC)N[C@H]2C=Cc3c([C@H](C)O)cc(nc3[C@@H]2O)C(=O)O[C@H]4C)n1)C(N)=O
[1]
  AC50: 7.94 µM [rising, partial curve]
[2]
  AC50: 14.1 µM [falling, single point]

## CCOc1ncccc1C(=O)NCc1ccc(OC)c(OC)c1
[2]
  AC50: 12.6 µM [rising, partial curve, poor fit]

## Cc1cc(C)c(S(=O)(=O)NCCCn2ccnc2)c(C)c1
[2]
  AC50: 20 µM [rising, single point]

## COc1ccccc1CNC(=O)C1CCN(Cc2nc(-c3cccc(Cl)c3)oc2C)CC1
[1]
  AC50: 10 µM [rising, partial curve]
[2]
  AC50: 10 µM [rising, partial curve, poor fit]

## COC(=O)c1cc(CSc2nnc(-c3ccccc3)c(-c3ccccc3)n2)oc1C
[1]
  AC50: 11.2 µM [rising, partial curve, poor fit]
[2]
  AC50: 15.8 µM [rising, partial curve]

## CCn1nc(C)c(C(=O)Nc2cc(Oc3cc(C)cc(C)c3)cc([N+](=O)[O-])c2)c1C
[2]
  AC50: 35.5 µM [rising, single point]

## FC(F)(F)c1cc(-c2ccccc2)nc(NCc2cccs2)n1
[1]
  AC50: 11.2 µM [rising, single point]
[2]
  AC50: 22.4 µM [rising, single point]

## COc1cccc(Cn2c(=O)c(-c3cccs3)nc3cnc(N4CCNCC4)nc32)c1
[1]
  AC50: 15.8 µM [falling, partial curve]
[2]
  AC50: 14.1 µM [falling, partial curve]

## CCOC(=O)C1=C(CNCCc2ccc(Cl)cc2)NC(=O)NC1c1ccc2c(c1)OCO2 (stereo unspecified)
[2]
  AC50: 35.5 µM [rising, single point]

## CCCCCC[C@@H]([C@@H](C)O)n1cnc2c(N)ncnc21
[2]
  AC50: 28.2 µM [rising, single point]

## c1ccc2c(c1)nnn2-c1ncnc2sccc12
[2]
  AC50: 25.1 µM [falling, single point]

## N#Cc1nc(Cc2ccccc2)oc1NCCc1ccccc1
[1]
  AC50: 8.91 µM [rising, partial curve]
[2]
  AC50: 12.6 µM [rising, single point]

## COc1ccc(C(Cl)=C(c2ccc(OC)cc2)c2ccc(OC)cc2)cc1
[1]
  AC50: 3.98 µM [falling, partial curve] and 0.794 nM [falling, full curve, poor fit]
[2]
  AC50: 282 nM [falling, single point] and 7.94 µM [rising, partial curve]

## CC1CCc2cc(F)ccc2N1C(=O)CSc1nnc2c(n1)[nH]c1ccc(F)cc12 (stereo unspecified)
[1]
  AC50: 15.8 µM [falling, single point]
[2]
  AC50: 0.0316 µM [falling, single point]

## O=C(Oc1c(-c2ccccc2Cl)oc2ccccc2c1=O)c1ccc(Cl)cc1
[1]
  AC50: 35.5 µM [rising, single point]
[2]
  AC50: 35.5 µM [rising, single point]

## Cc1oncc1C(=O)Nc1ccc(C(F)(F)F)cc1
[1]
  AC50: 10 nM [falling, full curve, poor fit] and 3.98 nM [falling, full curve, poor fit]
[2]
  AC50: 0.00316 µM [falling, full curve, poor fit]

## Cc1cccc(Cn2c(NCC(C)O)nc3c2c(=O)n(C)c(=O)n3C)c1 (stereo unspecified)
[2]
  AC50: 22.4 µM [rising, single point]

## Cc1ccc(C2=[N+]([O-])C(C)(C)N(O)C2(C)C)cc1
[2]
  AC50: 12.6 µM [falling, single point]

## NC(C(=O)N[C@@H]1C(=O)N2C(C(=O)O)=C(Cl)CS[C@H]12)c1ccccc1 (stereo partly specified)
[2]
  AC50: 0.158 µM [rising, full curve, poor fit]

## CCOC(=O)c1c(N)sc2c1CCN(Cc1ccccc1)C2
[2]
  AC50: 11.2 µM [rising, partial curve, poor fit]

## COc1ccccc1NS(=O)(=O)c1cc(NC(=O)C2CC2)ccc1N1CCOCC1
[2]
  AC50: 8.91 µM [rising, partial curve, poor fit]

## O=C(c1ccc(NC(=S)Nc2ccc(F)cc2F)cc1)N1CCOCC1
[2]
  AC50: 2.82 µM [falling, partial curve, poor fit]

## Fc1cccc2sc(Nc3nc4ccccc4s3)nc12
[1]
  AC50: 2 µM [rising, single point]
[2]
  AC50: 11.2 µM [rising, partial curve]

## COc1ccc2c(-c3ccccc3)cc(SCC(=O)N(C)C3CCS(=O)(=O)C3)nc2c1 (stereo unspecified)
[2]
  AC50: 12.6 µM [rising, partial curve]

## O=C(N/N=C/C(Br)=C/c1ccccc1)c1cccs1
[1]
  AC50: 1.78 µM [falling, partial curve]
[2]
  AC50: 1.78 µM [falling, partial curve]

## CCCCCCNC(=O)Nc1ccccc1
[1]
  AC50: 17.8 µM [rising, partial curve, poor fit]

## CN(C)C(CNC(=O)c1ccc(S(=O)(=O)N(C)C)cc1)Cc1ccccc1 (stereo unspecified)
[2]
  AC50: 1.78 µM [falling, partial curve]

## Cn1ncc2c(NNC(=O)c3ccc(Cl)c(Cl)c3)ncnc21
[2]
  AC50: 10 µM [rising, partial curve]

## CCN(CC)C(=O)Oc1ccnc2cc(Cl)ccc12
[1]
  AC50: 12.6 µM [falling, partial curve, poor fit]

## O=C(O)c1cccnc1Nc1cccc(C(F)(F)F)c1
[1]
  AC50: 14.1 µM [falling, single point]

## Clc1cccc(NCc2nnc(SCc3ccc(Cl)cc3Cl)o2)c1
[1]
  AC50: 35.5 µM [rising, single point]
[2]
  AC50: 25.1 µM [rising, single point]

## N#Cc1ccccc1NC(=O)C(=O)NCC(c1cccnc1)N1CCN(c2ccccc2)CC1 (stereo unspecified)
[2]
  AC50: 35.5 µM [rising, single point]

## CCCCOc1ccccc1NC(=O)Cn1c(-c2nonc2N)nc2ccccc21
[1]
  AC50: 35.5 µM [falling, single point]
[2]
  AC50: 1.26 µM [rising, full curve]

## Cc1ccc(-c2c(=O)n(OCc3ccccn3)c3ccccc3[n+]2[O-])cc1
[2]
  AC50: 0.1 µM [falling, partial curve, poor fit]

## Cc1cc2oc(=O)cc(CSc3nnc(C)n3N)c2cc1C(C)C
[2]
  AC50: 0.00316 µM [falling, full curve, poor fit]

## COc1cccc(COCCN2CCN(S(=O)(=O)c3ccc(C)cc3)CCC2=O)c1
[2]
  AC50: 12.6 µM [rising, single point]

## c1cncc(-c2nc(Oc3ccc(-c4nnco4)cc3)c3c4c(sc3n2)CCCC4)c1
[2]
  AC50: 0.126 µM [falling, partial curve]

## Cc1cc(C)n(-c2nc3ccccc3c(=O)n2OCC(=O)OCc2ccccc2)n1
[2]
  AC50: 15.8 µM [rising, partial curve]

## CC1CC(OC(=O)C(O)c2ccccc2)CC(C)(C)C1 (stereo unspecified)
[1]
  AC50: 0.00158 µM [falling, full curve, poor fit]
[2]
  AC50: 22.4 µM [falling, single point]

## Cc1cc[n+](CC(=O)c2ccc(NC(=O)c3ccccc3)cc2)cc1
[2]
  AC50: 14.1 µM [falling, partial curve, poor fit]

## Cc1cccc(N(C(=O)c2nsc(Cl)c2Cl)C(C(=O)NC2CCCC2)c2ccc(O)cc2)c1 (stereo unspecified)
[2]
  AC50: 17.8 µM [rising, partial curve, poor fit]

## Cc1cc(NCCCCO)n2c(nc3ccccc32)c1C#N
[2]
  AC50: 7.08 µM [rising, full curve, poor fit]

## CCOC1(OCC)C(c2ccc(Cl)cc2)C(C#N)(C#N)C1(OCC)OCC (stereo unspecified)
[1]
  AC50: 5.01 µM [falling, partial curve]

## CC(C)C(C(=O)Nc1nccs1)c1ccccc1 (stereo unspecified)
[1]
  AC50: 15.8 µM [rising, partial curve, poor fit]
[2]
  AC50: 8.91 µM [rising, partial curve, poor fit]

## COc1ccc(C(=O)Nc2ccc(-c3cc(C(F)(F)F)nn3-c3ccccc3)cc2)cc1OC
[1]
  AC50: 1.58 µM [falling, partial curve, poor fit]

## CN(C(=O)CCCN1C(=O)c2cccc3cccc(c23)C1=O)c1ccccc1
[2]
  AC50: 3.98 µM [rising, partial curve, poor fit]

## CCc1[nH]nc2c1C(C1C=CCCC1)C(C#N)=C(N)O2 (stereo unspecified)
[1]
  AC50: 8.91 µM [falling, partial curve]
